Construct, isoform or probe ends are uncertain for at least one entry. At least one verdict rests on a figure or table, not on a statement of the authors. Tags and fusion partners may be left off the protein sequences shown.
Tested on: T1, UPF1-HD DE636AA D636A,E637A (Homo sapiens)
T1 sequence (looked up): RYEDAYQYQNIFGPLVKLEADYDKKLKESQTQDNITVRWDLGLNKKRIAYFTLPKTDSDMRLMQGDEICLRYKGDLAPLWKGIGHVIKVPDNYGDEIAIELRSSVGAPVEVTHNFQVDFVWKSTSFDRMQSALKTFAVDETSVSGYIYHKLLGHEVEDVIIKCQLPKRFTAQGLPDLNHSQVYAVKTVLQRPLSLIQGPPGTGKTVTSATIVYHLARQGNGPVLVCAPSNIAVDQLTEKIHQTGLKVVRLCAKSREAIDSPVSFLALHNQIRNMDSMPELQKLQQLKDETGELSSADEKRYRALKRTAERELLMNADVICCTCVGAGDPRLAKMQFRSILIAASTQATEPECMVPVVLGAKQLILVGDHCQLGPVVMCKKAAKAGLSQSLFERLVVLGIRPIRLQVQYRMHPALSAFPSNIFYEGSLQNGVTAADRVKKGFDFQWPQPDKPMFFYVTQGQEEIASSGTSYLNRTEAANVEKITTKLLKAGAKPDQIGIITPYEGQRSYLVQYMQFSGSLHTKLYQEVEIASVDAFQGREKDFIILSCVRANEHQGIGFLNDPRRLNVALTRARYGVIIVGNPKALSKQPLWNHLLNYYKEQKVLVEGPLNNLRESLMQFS
Assay: pull-down
Settings: 200 mM NaCl; pull-down: BLI-like buffer, 30 C then 4 C, 200 mM NaCl wash; recombinant protein; residues 295-914; protein details: His; label: 3' biotin (BtnTg)

Does “CGUCCAUCUGGUCAUCUAGUGAUAUCAUCG [30-mer ssRNA 3'-biotin (pull-down)]” bind?
Result: binds

Source: PMC5789848
